In all, about 33,000 sequences were measured (“E-score (-0.5 to 0.5)”: median about -0.0034, highest 2% from about 0.25 on). Some of the results follow.
target: T1, Yap3 (UniProt P38749); experiment: PBM E-score (8-mer binding enrichment) (E-score (-0.5 to 0.5)); higher = stronger / more preferred TF binding; details: protein concentration: 100 nM; construct: GST-full length
T1 sequence: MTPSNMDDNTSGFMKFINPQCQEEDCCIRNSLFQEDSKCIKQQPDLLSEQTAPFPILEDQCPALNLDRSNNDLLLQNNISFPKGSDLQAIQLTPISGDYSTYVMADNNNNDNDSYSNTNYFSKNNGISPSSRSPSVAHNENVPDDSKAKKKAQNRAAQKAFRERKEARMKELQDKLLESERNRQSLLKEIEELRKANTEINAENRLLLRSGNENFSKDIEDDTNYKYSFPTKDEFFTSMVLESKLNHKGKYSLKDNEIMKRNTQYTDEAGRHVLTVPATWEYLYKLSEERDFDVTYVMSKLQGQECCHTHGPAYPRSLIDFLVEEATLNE
In short: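 Full-length yeast transcription factors or their DNA-binding domains, GST-tagged and expressed with PURExpress, were applied at about 100-200 nM to universal all-10-mer Agilent arrays. These arrays had been made double-stranded by primer extension on fresh or once-stripped slides. Detection used fluorescent anti-GST, normalisation used masliner, and E-scores for ungapped eight-base words pooled with reverse complements came from the Universal PBM Analysis Suite.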

| Sequence | PBM E-score |
| --- | --- |
| GATACGCA | 0.101 |
| GAGCAGGA | -0.00825 |
| GGGGCACA | -0.273 |
| GGCAAGAA | 0.195 |
| GTTCGCTA | -0.0447 |
| ATTCATGC | 0.0948 |
| AGCAACGA | 0.117 |
| ACCCTGAA | -0.0609 |
| GATCAACC | -0.188 |
| ACACAGTG | 0.07 |
| TAAGAACA | 0.326 |
| GTTCTTTA | 0.224 |
| TCGCTCAA | 0.149 |
| TCGCAAAA | 0.0856 |
| GGCGATAC | -0.0764 |
| AGAATTTA | 0.276 |
| TCGTTTAA | 0.0907 |
| AATGATGA | 0.189 |
| CTGGGATA | -0.0867 |
| CCAGGGGA | -0.334 |
| CTTACCGA | -0.0558 |
| AAGCATGA | 0.00576 |

| Sequence | PBM E-score |
| --- | --- |
| TCGCGACA | 0.0582 |
| CCAGTCTC | -0.22 |
| AACCTCAC | -0.136 |
| CCACCACG | -0.0554 |
| GCCAAGCC | -0.204 |
| CTAAACCA | -0.175 |
| ATATCATC | 0.14 |
| TCGTACCA | 0.124 |
| ACTGCGCT | 0.0128 |
| ACGGATTA | 0.109 |
| AATGTGAA | 0.255 |
| TAGGCCTA | 0.105 |
| GCCTCGAA | 0.0153 |
| GCGTTGCA | -0.112 |
| AAAGCCTG | -0.145 |
| ATAGGGAC | -0.139 |
| AGGCTTCA | -0.16 |
| ATGTTCCA | 0.0432 |
| CCTAGAAG | -0.131 |
| CTGAATTC | 0.0354 |
| ACTCTGGA | 0.0914 |
| GCCGCGCC | -0.124 |

7 entries drawn at random from the list so far, as already listed:

| Sequence | PBM E-score |
| --- | --- |
| ATGTTCCA | 0.0432 |
| CTGAATTC | 0.0354 |
| GCCTCGAA | 0.0153 |
| GCCGCGCC | -0.124 |
| AGGCTTCA | -0.16 |
| CCAGTCTC | -0.22 |
| AATGTGAA | 0.255 |

The listing continues:

| Sequence | PBM E-score |
| --- | --- |
| GCTACCAA | -0.158 |
| AGATAGTG | 0.232 |
| ACTGGAGG | -0.105 |
| ACTGCGGA | 0.0453 |
| ACCGCGCT | 0.00168 |
| ACTCTCGC | -0.0207 |
| AGGAACGA | -0.0493 |
| ACTCAGCT | 0.0229 |
| ATCTGCAA | -0.101 |
| CCGACTGC | -0.0495 |
| AAAGCCAA | -0.071 |
| CCCTGAAA | -0.024 |
| CCTGTAAA | -0.0789 |
| AGATATGG | 0.191 |
| GATCGGGC | -0.198 |
| ACTTTTAA | 0.0488 |
| CCACGAGC | -0.16 |
| AGTTTCCC | -0.111 |
| CGCGAAGA | 0.0316 |
| GGCCCGAA | 0.0391 |
| ATGGGTTA | -0.0104 |
| CCGCTTCA | -0.111 |

| Sequence | PBM E-score |
| --- | --- |
| AGAGAGAT | 0.0305 |
| GCAGACAA | 0.129 |
| AGGAGGTA | 0.01 |
| AGCACGCC | -0.157 |
| CAGACTTC | -0.146 |
| AGACCCAC | -0.0619 |
| ATTTTAGA | 0.0566 |
| GGTCCAAA | -0.111 |
| CTAGGTGA | -0.0157 |
| ACGCACGC | 0.262 |
| CGTAGCCA | -0.0722 |
| CAGTGCAG | -0.00824 |
| AAACCTGA | -0.0213 |
| ACTGAAGG | -0.13 |
| GCGCTTGA | 0.13 |
| CGTACCAG | -0.155 |
| AGCCGTCA | -0.0691 |
| TTGGACAA | 0.143 |
| ATGTACAT | 0.225 |
| AGATCGTA | -0.0596 |
| ATGGTAAT | 0.128 |
| AACCATGG | -0.0519 |

| Sequence | PBM E-score |
| --- | --- |
| AGCCACGG | -0.251 |
| CTCAACAA | 0.14 |
| ATTCGAGG | -0.106 |
| CCAGAGGG | -0.184 |
| ATCTTTGG | -0.0595 |
| GATCCTAA | -0.0348 |
| AATATAAA | 0.282 |
| GACATCCC | -0.0566 |
| AGTCTAGC | -0.207 |
| ATATTACA | 0.226 |
| GGCAGAAC | 0.0224 |
| CTTGGTAA | 0.101 |
| CGGTTGGC | 0.107 |
| GAATCGTC | -0.0255 |
| AGCATAGA | -0.0751 |
| ATGCCCGA | -0.013 |
| CTCACTTC | -0.193 |
| GATTTGGC | -0.0271 |
| ACGTCACT | 0.0465 |
| CCACATAA | 0.0607 |
| CGGCGCAA | -0.0572 |
